According to doi:10.1101/2024.06.14.24308555:
These are yes or no findings as the source states them, for the method shown. In cells and extracts the contact can be indirect. Some entries that bind do so weakly or less than the wild type. For some assays here: Tags and fused reporters may be left off the sequences shown.

How the values were obtained:
[1] = molecular target: T1, Flag-GFP-tagged IRF9 (F-G-IRF9) (human) (UniProt Q00978); assay: co-IP
T1 sequence: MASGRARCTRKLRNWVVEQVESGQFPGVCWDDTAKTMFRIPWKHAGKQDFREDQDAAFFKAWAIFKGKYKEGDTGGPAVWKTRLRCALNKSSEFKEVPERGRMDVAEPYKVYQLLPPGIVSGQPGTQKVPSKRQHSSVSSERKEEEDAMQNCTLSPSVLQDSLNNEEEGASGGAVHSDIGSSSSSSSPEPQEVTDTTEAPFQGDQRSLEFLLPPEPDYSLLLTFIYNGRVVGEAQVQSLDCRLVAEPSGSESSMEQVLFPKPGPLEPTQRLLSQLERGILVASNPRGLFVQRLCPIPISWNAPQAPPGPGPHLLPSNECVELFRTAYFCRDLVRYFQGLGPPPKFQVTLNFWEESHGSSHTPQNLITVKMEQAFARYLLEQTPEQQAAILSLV

[2] = molecular target: T2, IRF9 (interferon regulatory factor 9), endogenous (human (endogenous in HEK293T)) (UniProt Q00978); assay: co-IP
T2 sequence: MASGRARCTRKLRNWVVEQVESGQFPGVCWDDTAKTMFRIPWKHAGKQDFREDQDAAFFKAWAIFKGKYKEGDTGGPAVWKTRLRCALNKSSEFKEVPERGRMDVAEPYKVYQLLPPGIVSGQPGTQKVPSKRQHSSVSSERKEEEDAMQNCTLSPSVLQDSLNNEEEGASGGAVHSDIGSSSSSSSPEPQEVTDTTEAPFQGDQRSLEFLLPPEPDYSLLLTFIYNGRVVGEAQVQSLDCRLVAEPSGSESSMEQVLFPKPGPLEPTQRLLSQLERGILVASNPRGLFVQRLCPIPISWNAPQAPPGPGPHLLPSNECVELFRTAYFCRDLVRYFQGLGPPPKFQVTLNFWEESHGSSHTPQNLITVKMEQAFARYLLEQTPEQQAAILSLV

binding [1]: binds
binding [2]: binds
B1: PTP1B, endogenous (enzyme, UniProt P18031 1-435)
chain: MEMEKEFEQIDKSGSWAAIYQDIRHEASDFPCRVAKLPKNKNRNRYRDVSPFDHSRIKLHQEDNDYINASLIKMEEAQRSYILTQGPLPNTCGHFWEMVWEQKSRGVVMLNRVMEKGSLKCAQYWPQKEEKEMIFEDTNLKLTLISEDIKSYYTVRQLELENLTTQETREILHFHYTTWPDFGVPESPASFLNFLFKVRESGSLSPEHGPVVVHCSAGIGRSGTFCLADTCLLLMDKRKDPSSVDIKKVLLEMRKFRMGLIQTADQLRFSYLAVIEGAKFIMGDSSVQDQWKELSHEDLEPPPEHIPPPPRPPKRILEPHNGKCREFFPNHQWVKEETQEDKDCPIKEEKGSPLNAAPYGIESMSQDTEVRSRVVGGSLRGAQAASPAKGEPSLPEKDEDHALSYWKPFLVNMCVATVLTAGAYLCYRFLFNSNT
